Laboratory results reported in US9982138B2, “Hair color compositions comprising stable violet-blue to blue imidazolium dyes” (Noxell Corporation, priority 2016, dated 2018).

assay: Colorstrike / color intensity on natural white hair (colorimeter, D65 illumination); conditions: dye in water adjusted to pH 10.8 with 28% ammonia, mixed with equal volume of 6% hydrogen peroxide solution, rinsed after thirty minutes

Q: Which results are given for `CCN1CCN(CC)c2cc(/N=N/c3n(CCCN)cc[n+]3CCCN)ccc21.Cl.Cl.[Br-]` [Compound 1, (E)-1,3-bis(3-ammoniopropyl)-2-((1,4-diethyl-1,2,3,4-tetrahydroquinoxalin-6-yl)diazenyl)-1H-imidazol-3-ium bromide dichloride]?
A: L: 18.27; a: −0.98; b: −6.59

Q: With `CCN1CCN(CC)c2cc(/N=N/c3n(CCC[N+](C)(C)C)cc[n+]3CCC[N+](C)(C)C)ccc21` [Compound 2, (E)-2-((1,4-diethyl-1,2,3,4-tetrahydroquinoxalin-6-yl)diazenyl)-1,3-bis(3-(trimethyl-ammonio)propyl)-1H-imidazol-3-ium tribromide] as the compound, how does the L read?
A: 18.31

Q: And the a?
A: −0.34

Q: And the b?
A: −8.23

Q: With `CN1CCNc2cc(/N=N/c3n(CCCN)cc[n+]3CCCN)ccc21.Cl.Cl.[Br-]` [Compound 3, (E)-1,3-bis(3-ammoniopropyl)-2-((1-methyl-1,2,3,4-tetrahydroquinoxalin-6-yl)diazenyl)-1H-imidazol-3-ium bromide dichloride] as the compound, how does the L read?
A: 18.24

Q: And the a?
A: 1.06

Q: And the b?
A: −7.83

Q: For `CCCCCN1CCN(CCCCC)c2cc(/N=N/c3n(CCCCN)cc[n+]3CCCCN)ccc21.Cl.Cl.[Br-]` [Compound 4, (E)-1,3-bis(4-ammoniobutyl)-2-((1,4-dipentyl-1,2,3,4-tetrahydroquinoxalin-6-yl)diazenyl)-1H-imidazol-3-ium bromide dichloride], which L is on record?
A: 20.55

Q: And the a?
A: −2.22

Q: What about the b of the same compound?
A: −7.03

Q: What does the source list for `CCCCCN1CCNc2cc(/N=N/c3n(CCCN)cc[n+]3CCCN)ccc21.Cl.Cl.[Br-]` [Compound 5, (E)-1,3-bis(3-ammoniopropyl)-2-((1-pentyl-1,2,3,4-tetrahydroquinoxalin-6-yl)diazenyl)-1H-imidazol-3-ium bromide dichloride]?
A: L: 19.40; a: 0.36; b: −8.79

Q: Which L does the source give for `CCN1CCN(CC)c2cc(/N=N/c3n(CCC[N+](C)(C)C)cc[n+]3CCC[N+](C)(C)C)ccc21` [Compound 6] here?
A: 20.67

Q: What about the a of the same compound?
A: −1.98

Q: What about the b of the same compound?
A: −7.99

Q: For `C=CCN1CCN(CC=C)c2cc(/N=N/c3n(CCCCN)cc[n+]3CCCCN)ccc21` [Compound 7], which L is on record?
A: 18.31

Q: What about the a of the same compound?
A: −0.34

Q: And the b?
A: −8.23

Q: Which L does the source give for `Cn1cc[n+](C)c1/N=N/c1cc2c3c(c1)OCCN3CCO2` [Compound 8, (E)-1,3-dimethyl-2-((2,3,4,5-tetrahydro-1,6-dioxa-3a-azaphenalen-8-yl)diazenyl)-1H-imidazol-3-ium methyl sulfate] here?
A: 19.85

Q: And the a?
A: 30.32

Q: What about the b of the same compound?
A: −14.59

Q: For `CCN1CCN(CC)c2cc(/N=N/c3n(CCCCN)cc[n+]3CCCCN)ccc21` [Compound 9], which L is on record?
A: 25.66

Q: And the a?
A: −3.25

Q: And the b?
A: −10.69

Counter-ions that a name gives are not always drawn.
